These results are taken from patent US20060019252A1.

Changes are numbered by the printed parent chain. Names and notes keep the numbering of the source. No constants are given. Whether binding was seen depends on the method and setting. For part of these data: Binding seen in cells or lysates may run through a third protein. Some results given as binding are weak or reduced against the parent protein; the word gives no strength. For part of these data: Tags and fused reporters may be left off the sequences shown.

In assay [1] the target is T1, FLAG-tagged PPIL1 protein (human).
T1 sequence: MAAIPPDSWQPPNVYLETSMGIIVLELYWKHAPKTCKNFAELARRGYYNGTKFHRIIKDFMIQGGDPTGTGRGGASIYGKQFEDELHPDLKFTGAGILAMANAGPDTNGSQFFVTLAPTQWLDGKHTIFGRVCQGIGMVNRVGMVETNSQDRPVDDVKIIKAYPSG
As to the kind of experiment: co-immunoprecipitation from transfected COS7 cells, immunoblot.

The target in assay [2] is T2, PPIL1 bait of the bacterial two-hybrid system (pBT-PPIL1) (human).
T2 sequence: T1 sequence
Put plainly: bacterial two-hybrid (BacterioMatch).

Assay [3] addresses T1, FLAG-tagged PPIL1 protein (human). As to the kind of experiment: co-precipitation from transfected cells, immunoblot.
For assay [4], the target named is T3, myc-tagged SNW1 protein (human) (UniProt Q13573).
T3 sequence (looked up): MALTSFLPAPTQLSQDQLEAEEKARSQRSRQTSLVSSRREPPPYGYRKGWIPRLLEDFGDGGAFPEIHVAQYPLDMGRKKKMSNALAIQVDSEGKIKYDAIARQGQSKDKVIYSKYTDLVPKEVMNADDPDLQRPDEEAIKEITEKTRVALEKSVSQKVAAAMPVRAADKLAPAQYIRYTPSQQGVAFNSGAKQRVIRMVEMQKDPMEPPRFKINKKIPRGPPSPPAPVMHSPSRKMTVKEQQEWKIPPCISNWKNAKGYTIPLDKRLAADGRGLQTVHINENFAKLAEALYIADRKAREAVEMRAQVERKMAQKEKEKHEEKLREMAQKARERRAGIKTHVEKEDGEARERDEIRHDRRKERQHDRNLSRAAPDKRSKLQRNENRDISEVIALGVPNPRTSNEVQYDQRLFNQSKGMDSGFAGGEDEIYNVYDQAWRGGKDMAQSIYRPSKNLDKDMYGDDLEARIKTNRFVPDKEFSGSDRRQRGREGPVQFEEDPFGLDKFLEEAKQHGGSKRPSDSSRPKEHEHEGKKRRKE
Put plainly: co-immunoprecipitation from co-transfected COS7 cells (anti c-Myc or anti FLAG), immunoblot.

Assay [5] has as its target T4, HA-tagged stathmin protein (human) (UniProt P16949).
T4 sequence (looked up): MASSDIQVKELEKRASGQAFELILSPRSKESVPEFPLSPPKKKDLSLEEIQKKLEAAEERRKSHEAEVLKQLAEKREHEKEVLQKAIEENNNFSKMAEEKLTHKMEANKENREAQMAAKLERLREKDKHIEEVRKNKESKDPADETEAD
Put plainly: co-immunoprecipitation from co-transfected COS7 cells, immunoblot.

Assay [6] addresses T3, myc-tagged SNW1 protein (human). The assay is described as above.
Assay [7] concerns the target T4, HA-tagged stathmin protein (human). Put plainly: co-immunoprecipitation from COS7 cells (FIG. 23B).
For assay [8], the target named is T5, stathmin target clone of the bacterial two-hybrid system (pTRG-STMN) (human) (UniProt P16949).
T5 sequence (looked up): T4 sequence (looked up)
Put plainly: two-hybrid system (FIG. 23A).

B1: stathmin deletion mutant (Del3) lacking amino acids 1-43 (protein, not shown: small tags and cut ends)
chain: MDLSLEEIQKKLEAAEERRKSHEAEVLKQLAEKREHEKEVLQKAIEENNNFSKMAEEKLTHKMEANKENREAQMAAKLERLREKDKHIEEVRKNKESKDPADETEAD
For the molecule B1, the binding result in assay [1] is reported as “binds”.

B2: stathmin mutant containing amino acids 1 to 61 (protein, not shown: small tags and cut ends)
chain: MASSDIQVKELEKRASGQAFELILSPRSKESVPEFPLSPPKKKDLSLEEIQKKLEAAEERR
For the molecule B2, the binding entry in assay [1] is reported as “binds”.

B3: stathmin target clone of the bacterial two-hybrid system (pTRG-STMN) (protein, human, UniProt P16949 1-149, looked up, not shown: large carriers)
chain: T4 sequence (looked up)
For the molecule B3, the binding result in assay [2] is “binds”.

B4: stathmin-S38A mutant (protein, human, UniProt P16949 1-149, looked up, not shown: small tags and cut ends)
chain: T4 sequence (looked up) with S38A
Consider B4, for which the binding entry in assay [3] was “binds”.

B5: FLAG-tagged PPIL1 protein (enzyme, not shown: small tags and cut ends)
chain: T1 sequence
For the molecule B5, the binding result in assay [4], in assay [5], in assay [6] and in assay [7] was “binds” each time.

B6: PPIL1 bait of the bacterial two-hybrid system (pBT-PPIL1) (enzyme, not shown: large carriers)
chain: T1 sequence
Consider B6, for which the binding entry in assay [8] was “binds”.
